## Results from one PubChem assay

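Vaccinia-infected cells with a two-color viral stage reporter; Venus fluorescence read on a plate reader; the cell line is not named here; timing not stated here.
The test concentration is not given here.
Percent change in Venus reporter signal; lower (more negative) values mean stronger inhibition of that viral stage.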

Values are in %.
The controls that fix the scale are not given here.
Common to all entries: measured here: Venus reporter, other viral stage.
This is a side read-out of the assay, for part of the compounds, not drawn at random.

structure: C[C@@H]1CN([C@@H](C)CO)C(=O)Cc2cc(NC(=O)CCC(F)(F)F)ccc2O[C@H]1CN(C)Cc1ccc(Cl)c(Cl)c1
activity change (Venus) (%): -84.98

structure: COCC#Cc1ccc2c(c1)O[C@H](CN(C)Cc1ccc(F)cc1)[C@@H](C)CN([C@@H](C)CO)S2(=O)=O
activity change (Venus) (%): -53.59

structure: C[C@H](CO)N1C[C@H](C)[C@@H](CN(C)Cc2ccc(Cl)c(Cl)c2)OCCCC[C@H](C)Oc2ccc(NC(=O)CCC(F)(F)F)cc2C1=O
activity change (Venus) (%): -49.48

structure: C[C@H]1CN([C@@H](C)CO)S(=O)(=O)c2ccc(C#Cc3ccc(F)cc3)cc2O[C@H]1CN(C)CC1CC1
activity change (Venus) (%): -43.9

structure: C[C@H](CO)N1C[C@H](C)[C@@H](CN(C)C(=O)Nc2ccc(F)cc2)Oc2c(NC(=O)Nc3ccc(C(F)(F)F)cc3)cccc2C1=O
activity change (Venus) (%): -31.65

structure: COc1cccc(-c2ccc(C3[C@@H]4CN(S(=O)(=O)c5ccccc5C)C[C@H]3N4)cc2)c1 (stereo partly drawn)
activity change (Venus) (%): -66.35

structure: O=C(Nc1ccccc1)N1CC(=O)N2[C@H](CO)[C@@H](c3ccc(C#CC4CCCC4)cc3)[C@H]2C1
activity change (Venus) (%): -43.45

structure: C[C@@H]1CN([C@H](C)CO)C(=O)c2cc(NC(=O)CCC(F)(F)F)ccc2O[C@@H]1CN(C)Cc1ccc(-c2ccccc2)cc1
activity change (Venus) (%): -29.31

structure: C[C@@H]1CN([C@@H](C)CO)C(=O)c2cc(NC(=O)NC3CCCCC3)ccc2O[C@@H]1CN(C)Cc1ccc(C(F)(F)F)cc1
activity change (Venus) (%): -33.72

structure: O=C(C[C@@H]1CC[C@@H]2[C@H](COC[C@H](O)CN2Cc2ccccc2F)O1)N1CCc2ccccc2C1
activity change (Venus) (%): -25.55

structure: C[C@@H]1CN([C@@H](C)CO)C(=O)c2cc(/C=C/c3ccccc3)cnc2O[C@@H]1CN(C)S(=O)(=O)c1ccc(F)cc1
activity change (Venus) (%): -35.71

structure: Cc1ccc(S(=O)(=O)Nc2ccc3c(c2)C(=O)N([C@@H](C)CO)C[C@@H](C)[C@H](CN(C)Cc2ccc(Cl)c(Cl)c2)OCCCC[C@@H](C)O3)cc1
activity change (Venus) (%): -66.14

structure: O=C(C[C@H]1CC[C@H]2[C@@H](COC[C@H](O)CN2C(=O)Nc2ccc(Cl)c(Cl)c2)O1)NCc1ccc(Cl)cc1
activity change (Venus) (%): -66.94

structure: C[C@H](O)C#Cc1ccc2c(c1)O[C@@H](CN(C)Cc1ccc(-c3ccccc3)cc1)[C@@H](C)CN([C@H](C)CO)S2(=O)=O
activity change (Venus) (%): -53.8

structure: O=C(C[C@@H]1C[C@H]2c3cc(NC(=O)Nc4ccccc4F)ccc3O[C@H]2[C@H](CO)O1)NC1CCCCC1
activity change (Venus) (%): -37.86

structure: COc1ccc2c3c(n(C)c2c1)[C@@H](CO)N(C(=O)Nc1ccc(F)cc1)CC31CN(C(=O)c2ccc3c(c2)OCO3)C1
activity change (Venus) (%): -32.72

structure: CC(C)CC#Cc1ccc([C@@H]2[C@H](CO)N3CCCCN(C(=O)c4ccc5c(c4)OCO5)C[C@@H]23)cc1
activity change (Venus) (%): -43.43

structure: C[C@@H](NC(=O)C[C@@H]1CC[C@H]2[C@@H](COC[C@H](O)CN2C(=O)Nc2cc(Cl)cc(Cl)c2)O1)c1ccccc1
activity change (Venus) (%): -60.21

structure: COc1ccc(C#Cc2cnc3c(c2)C(=O)N([C@H](C)CO)C[C@H](C)[C@H](CN(C)S(=O)(=O)c2ccc(C#N)cc2)O3)cc1OC
activity change (Venus) (%): -24.58

structure: C[C@@H]1CN([C@@H](C)CO)S(=O)(=O)c2ccc(C#Cc3ccc(F)cc3)cc2O[C@H]1CN(C)C(=O)NC1CCCC1
activity change (Venus) (%): -69.53

structure: CCNC(=O)C[C@@H]1CC[C@@H]2[C@H](COC[C@@H](O)CN2C(=O)Nc2ccc(Cl)c(Cl)c2)O1
activity change (Venus) (%): -41.93

structure: C[C@@H]1CN([C@@H](C)CO)C(=O)Cc2cc(NC(=O)CCCCCC(=O)Nc3ccccc3N)ccc2O[C@H]1CN(C)Cc1ccc(Cl)c(Cl)c1
activity change (Venus) (%): -21.11

structure: N#C[C@H]1[C@@H](c2ccc(-c3cccc(F)c3)cc2)[C@@H](CO)N1S(=O)(=O)c1cccc(F)c1
activity change (Venus) (%): -58.2

structure: C[C@H](CO)N1C[C@H](C)[C@H](CN(C)C(=O)Nc2ccccc2)Oc2ncc(-c3cccc(C(F)(F)F)c3)cc2C1=O
activity change (Venus) (%): -46.89

structure: COc1cccc(C#Cc2ccc([C@H]3[C@@H](CO)N4C(=O)CN(C(C)=O)C[C@H]34)cc2)c1
activity change (Venus) (%): -47.47

structure: Cc1ccc(S(=O)(=O)Nc2ccc3c(c2)CC(=O)N([C@H](C)CO)C[C@H](C)[C@@H](CN(C)CC2CCCCC2)O3)cc1
activity change (Venus) (%): -53.42

structure: CN(C)C(=O)c1ccc(-c2ccc(C3[C@@H]4CN(C(=O)C5CC5)C[C@H]3N4)cc2)cc1 (stereo partly drawn)
activity change (Venus) (%): -75.66

structure: CC(C)CC#Cc1ccc2c(c1)O[C@@H](CN(C)C(=O)C1CCC1)[C@H](C)CN([C@@H](C)CO)S2(=O)=O
activity change (Venus) (%): -34.71

structure: Cc1ccc(-c2cnc3c(c2)C(=O)N([C@@H](C)CO)C[C@H](C)[C@@H](CN(C)Cc2ccccc2F)O3)cc1
activity change (Venus) (%): -35.71

Source: PubChem BioAssay AID1053133 (Broad Institute, 2014).